In paper doi:10.1101/2022.03.04.482944:
No constants are given. Whether binding was seen depends on the method and setting.

T1: BMPR2-Halo (human), Q13873
T1 chain: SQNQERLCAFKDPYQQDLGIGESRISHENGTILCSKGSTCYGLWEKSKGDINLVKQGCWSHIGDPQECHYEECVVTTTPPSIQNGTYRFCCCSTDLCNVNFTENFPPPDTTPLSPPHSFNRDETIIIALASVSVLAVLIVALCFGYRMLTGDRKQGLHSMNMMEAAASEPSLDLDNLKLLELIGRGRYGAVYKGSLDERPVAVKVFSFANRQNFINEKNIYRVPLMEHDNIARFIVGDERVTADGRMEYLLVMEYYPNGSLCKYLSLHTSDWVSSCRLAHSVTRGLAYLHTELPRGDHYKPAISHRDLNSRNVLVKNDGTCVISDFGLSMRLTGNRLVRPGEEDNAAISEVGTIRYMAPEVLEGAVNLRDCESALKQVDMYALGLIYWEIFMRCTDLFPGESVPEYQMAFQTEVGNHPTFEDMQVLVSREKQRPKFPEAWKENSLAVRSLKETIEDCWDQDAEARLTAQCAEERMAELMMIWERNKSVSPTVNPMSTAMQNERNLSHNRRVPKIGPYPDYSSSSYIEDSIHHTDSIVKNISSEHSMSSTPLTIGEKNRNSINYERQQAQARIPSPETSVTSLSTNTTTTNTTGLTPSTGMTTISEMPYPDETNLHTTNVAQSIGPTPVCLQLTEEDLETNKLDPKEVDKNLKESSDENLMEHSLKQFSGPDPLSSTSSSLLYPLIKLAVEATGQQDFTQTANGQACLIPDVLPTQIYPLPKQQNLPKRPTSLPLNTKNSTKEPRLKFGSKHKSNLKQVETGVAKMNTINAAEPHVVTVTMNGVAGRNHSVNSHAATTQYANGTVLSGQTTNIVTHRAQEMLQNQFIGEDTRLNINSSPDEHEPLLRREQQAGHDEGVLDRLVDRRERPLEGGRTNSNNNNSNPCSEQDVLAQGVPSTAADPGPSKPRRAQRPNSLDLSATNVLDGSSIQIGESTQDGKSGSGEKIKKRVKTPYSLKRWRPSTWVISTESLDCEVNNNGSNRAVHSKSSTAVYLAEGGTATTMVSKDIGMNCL

T2: ALK2-Halo (human), Q04771
T2 chain: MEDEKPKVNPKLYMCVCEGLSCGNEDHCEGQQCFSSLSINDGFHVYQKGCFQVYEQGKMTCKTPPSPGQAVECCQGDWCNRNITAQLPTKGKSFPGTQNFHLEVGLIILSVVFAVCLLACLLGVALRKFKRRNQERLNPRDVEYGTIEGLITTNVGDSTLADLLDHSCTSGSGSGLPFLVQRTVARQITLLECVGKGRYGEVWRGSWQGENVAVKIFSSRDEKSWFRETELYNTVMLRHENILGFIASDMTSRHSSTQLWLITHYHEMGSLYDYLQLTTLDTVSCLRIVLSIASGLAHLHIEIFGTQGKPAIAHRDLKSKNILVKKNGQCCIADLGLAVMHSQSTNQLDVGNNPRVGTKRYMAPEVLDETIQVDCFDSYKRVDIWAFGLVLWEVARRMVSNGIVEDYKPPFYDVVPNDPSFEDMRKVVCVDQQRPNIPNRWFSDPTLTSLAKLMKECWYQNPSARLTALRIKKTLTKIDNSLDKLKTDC

T3: ALK5-Halo (human), P36897
T3 chain: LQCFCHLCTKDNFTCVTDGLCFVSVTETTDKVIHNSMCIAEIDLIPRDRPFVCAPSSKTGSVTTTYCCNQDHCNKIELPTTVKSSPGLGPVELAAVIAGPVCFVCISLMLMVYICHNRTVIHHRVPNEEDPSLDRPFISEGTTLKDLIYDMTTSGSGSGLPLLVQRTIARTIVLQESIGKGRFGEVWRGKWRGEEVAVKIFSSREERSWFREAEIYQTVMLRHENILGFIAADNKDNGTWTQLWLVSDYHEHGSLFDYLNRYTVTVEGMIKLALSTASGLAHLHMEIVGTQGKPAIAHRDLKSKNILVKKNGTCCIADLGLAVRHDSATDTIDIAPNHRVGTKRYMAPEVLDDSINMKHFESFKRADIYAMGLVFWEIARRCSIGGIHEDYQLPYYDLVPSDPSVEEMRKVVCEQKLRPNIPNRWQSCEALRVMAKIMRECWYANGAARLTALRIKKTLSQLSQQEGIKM


Assays:
Assay in all cases: Ligand Surface Binding Assay
Details in all cases: remark: other sources report otherwise
[1] = target: T1, BMPR2-Halo (human), Q13873
[2] = target: T2, ALK2-Halo (human), Q04771
[3] = target: T3, ALK5-Halo (human), P36897

Row | binding [1] | binding [2] | binding [3] | Binder
1 | no binding (tested: 0.3 nM) | – | – | BMP9-SiR-d12, Q9UK05 320-429 (ligand, here or on the partner: SiR-d12 label (NHS-SiR-d12 ester, 5-fold molar excess)) SAGAGSHCQKTSLRVNFEDIGWDSWIIAPKEYEAYECKGGCFFPLADDVTPTKHAIVQTLVHLKFPTKVGKACCVPTKLSPISVLYKDDMGVPTLKYHYEGMSVAECGCR
2 | – | no binding (tested: 2 nM) | no binding (tested: 2 nM) | Activin A-Cy5, P08476 311-426 (ligand, here or on the partner: Cy5 label (NHS-activated Cy5, protein:dye ratio 1:2 in the labelling reaction)) GLECDGKVNICCKKQFFVSFKDIGWNDWIIAPSGYHANYCEGECPSHIAGTSGSSLSFHSTVINHYRMRGHSPFANLKSCCVPTKLRPMSMLYYDDGQNIIKKDIQNMIVEECGCS
